# Data from ChEMBL document CHEMBL5465560, “Selectivity Literature for EUbOPEN Chemogenomic Library” (2024).
# Protein sequences, listed by entry. Tags and fused reporters are not part of them. Lines headed by an entry give the natural chain unless they say otherwise; changes in a name come on top.
# UniProt Q96D53: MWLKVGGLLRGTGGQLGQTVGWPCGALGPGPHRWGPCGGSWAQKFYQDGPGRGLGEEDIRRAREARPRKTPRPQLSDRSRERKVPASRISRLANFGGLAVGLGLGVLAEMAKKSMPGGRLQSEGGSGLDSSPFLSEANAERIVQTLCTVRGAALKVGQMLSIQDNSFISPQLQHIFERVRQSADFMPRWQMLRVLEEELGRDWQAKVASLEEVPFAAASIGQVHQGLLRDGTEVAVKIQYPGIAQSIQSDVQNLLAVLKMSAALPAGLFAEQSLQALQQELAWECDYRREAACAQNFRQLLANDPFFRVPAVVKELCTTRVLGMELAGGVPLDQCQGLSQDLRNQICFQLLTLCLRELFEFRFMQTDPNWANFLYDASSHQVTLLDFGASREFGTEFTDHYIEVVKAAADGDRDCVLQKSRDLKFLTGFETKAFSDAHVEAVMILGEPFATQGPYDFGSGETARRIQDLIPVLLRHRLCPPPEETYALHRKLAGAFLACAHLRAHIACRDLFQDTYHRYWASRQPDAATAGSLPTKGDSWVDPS
# UniProt Q13555: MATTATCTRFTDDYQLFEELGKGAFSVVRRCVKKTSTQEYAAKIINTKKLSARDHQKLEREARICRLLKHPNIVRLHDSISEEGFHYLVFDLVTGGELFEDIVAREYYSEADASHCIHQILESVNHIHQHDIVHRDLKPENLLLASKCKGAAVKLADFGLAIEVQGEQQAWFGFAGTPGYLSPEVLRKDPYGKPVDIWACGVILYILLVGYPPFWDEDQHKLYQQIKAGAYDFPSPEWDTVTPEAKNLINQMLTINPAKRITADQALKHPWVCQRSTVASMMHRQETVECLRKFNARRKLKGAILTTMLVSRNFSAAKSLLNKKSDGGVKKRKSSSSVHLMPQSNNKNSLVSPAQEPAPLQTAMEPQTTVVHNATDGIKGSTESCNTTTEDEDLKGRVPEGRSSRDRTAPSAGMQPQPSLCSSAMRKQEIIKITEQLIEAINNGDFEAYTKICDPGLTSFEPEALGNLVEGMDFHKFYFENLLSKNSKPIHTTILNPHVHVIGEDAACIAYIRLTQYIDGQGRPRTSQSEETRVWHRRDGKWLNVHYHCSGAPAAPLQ
# UniProt Q00526: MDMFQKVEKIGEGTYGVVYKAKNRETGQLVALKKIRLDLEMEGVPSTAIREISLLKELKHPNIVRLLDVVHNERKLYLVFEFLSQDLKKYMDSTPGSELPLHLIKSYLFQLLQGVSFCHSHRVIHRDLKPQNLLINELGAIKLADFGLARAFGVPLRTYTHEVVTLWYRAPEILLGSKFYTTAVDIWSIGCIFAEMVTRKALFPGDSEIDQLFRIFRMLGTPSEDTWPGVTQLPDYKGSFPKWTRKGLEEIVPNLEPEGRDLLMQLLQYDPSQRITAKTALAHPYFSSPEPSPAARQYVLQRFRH
# UniProt Q9UPZ9: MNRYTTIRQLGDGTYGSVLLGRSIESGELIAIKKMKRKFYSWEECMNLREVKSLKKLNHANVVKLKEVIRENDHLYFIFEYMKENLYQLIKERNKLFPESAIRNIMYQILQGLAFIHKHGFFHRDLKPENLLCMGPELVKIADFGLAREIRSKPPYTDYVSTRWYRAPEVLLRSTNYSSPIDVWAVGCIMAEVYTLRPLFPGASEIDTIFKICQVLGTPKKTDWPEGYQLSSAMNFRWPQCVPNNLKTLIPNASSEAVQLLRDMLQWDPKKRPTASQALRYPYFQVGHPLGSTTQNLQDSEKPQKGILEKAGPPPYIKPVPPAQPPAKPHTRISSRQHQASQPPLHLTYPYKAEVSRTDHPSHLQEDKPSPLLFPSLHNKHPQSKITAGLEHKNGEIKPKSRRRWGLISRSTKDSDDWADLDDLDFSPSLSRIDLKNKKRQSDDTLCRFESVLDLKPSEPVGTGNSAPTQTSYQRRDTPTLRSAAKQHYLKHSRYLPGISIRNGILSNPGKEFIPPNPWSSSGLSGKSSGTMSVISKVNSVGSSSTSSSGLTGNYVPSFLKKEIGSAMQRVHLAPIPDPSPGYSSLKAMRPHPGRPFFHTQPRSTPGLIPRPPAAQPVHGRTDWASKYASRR
# UniProt Q9Y4K4: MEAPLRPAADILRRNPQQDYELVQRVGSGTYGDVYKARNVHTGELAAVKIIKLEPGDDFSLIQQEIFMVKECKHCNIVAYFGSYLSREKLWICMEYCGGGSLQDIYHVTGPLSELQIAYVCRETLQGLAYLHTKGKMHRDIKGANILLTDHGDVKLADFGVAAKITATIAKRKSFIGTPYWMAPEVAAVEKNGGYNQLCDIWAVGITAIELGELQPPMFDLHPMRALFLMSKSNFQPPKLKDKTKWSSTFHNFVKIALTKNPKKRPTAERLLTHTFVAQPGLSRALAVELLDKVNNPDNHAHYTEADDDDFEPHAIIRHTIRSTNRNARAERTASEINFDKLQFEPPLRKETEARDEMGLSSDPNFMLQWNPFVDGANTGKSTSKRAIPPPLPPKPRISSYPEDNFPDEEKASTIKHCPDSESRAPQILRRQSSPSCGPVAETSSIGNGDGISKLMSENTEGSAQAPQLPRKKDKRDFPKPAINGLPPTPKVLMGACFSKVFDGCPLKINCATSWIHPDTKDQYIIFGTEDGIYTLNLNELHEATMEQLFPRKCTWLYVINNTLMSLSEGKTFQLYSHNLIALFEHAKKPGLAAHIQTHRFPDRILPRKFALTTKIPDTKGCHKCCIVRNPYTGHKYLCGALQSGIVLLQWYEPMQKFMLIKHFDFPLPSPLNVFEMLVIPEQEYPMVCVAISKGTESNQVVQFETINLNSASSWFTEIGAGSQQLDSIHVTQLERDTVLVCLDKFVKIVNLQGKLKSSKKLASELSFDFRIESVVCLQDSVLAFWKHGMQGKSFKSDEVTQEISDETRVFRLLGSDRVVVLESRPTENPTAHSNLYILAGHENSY
# UniProt Q13153, whole entry: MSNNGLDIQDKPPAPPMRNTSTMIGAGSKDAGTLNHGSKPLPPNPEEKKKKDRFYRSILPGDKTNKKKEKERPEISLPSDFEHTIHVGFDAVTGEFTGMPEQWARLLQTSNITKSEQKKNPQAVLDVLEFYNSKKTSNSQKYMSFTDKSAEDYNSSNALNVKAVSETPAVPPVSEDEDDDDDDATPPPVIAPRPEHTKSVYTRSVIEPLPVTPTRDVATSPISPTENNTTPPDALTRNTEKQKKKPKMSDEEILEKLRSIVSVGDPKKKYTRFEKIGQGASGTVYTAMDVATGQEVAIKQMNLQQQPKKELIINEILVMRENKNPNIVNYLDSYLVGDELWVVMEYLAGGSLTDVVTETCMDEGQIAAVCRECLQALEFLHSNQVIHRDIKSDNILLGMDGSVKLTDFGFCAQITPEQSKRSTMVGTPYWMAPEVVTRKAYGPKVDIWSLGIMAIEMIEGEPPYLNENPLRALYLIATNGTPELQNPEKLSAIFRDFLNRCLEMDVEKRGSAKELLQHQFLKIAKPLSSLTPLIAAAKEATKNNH
# UniProt P37173, whole entry: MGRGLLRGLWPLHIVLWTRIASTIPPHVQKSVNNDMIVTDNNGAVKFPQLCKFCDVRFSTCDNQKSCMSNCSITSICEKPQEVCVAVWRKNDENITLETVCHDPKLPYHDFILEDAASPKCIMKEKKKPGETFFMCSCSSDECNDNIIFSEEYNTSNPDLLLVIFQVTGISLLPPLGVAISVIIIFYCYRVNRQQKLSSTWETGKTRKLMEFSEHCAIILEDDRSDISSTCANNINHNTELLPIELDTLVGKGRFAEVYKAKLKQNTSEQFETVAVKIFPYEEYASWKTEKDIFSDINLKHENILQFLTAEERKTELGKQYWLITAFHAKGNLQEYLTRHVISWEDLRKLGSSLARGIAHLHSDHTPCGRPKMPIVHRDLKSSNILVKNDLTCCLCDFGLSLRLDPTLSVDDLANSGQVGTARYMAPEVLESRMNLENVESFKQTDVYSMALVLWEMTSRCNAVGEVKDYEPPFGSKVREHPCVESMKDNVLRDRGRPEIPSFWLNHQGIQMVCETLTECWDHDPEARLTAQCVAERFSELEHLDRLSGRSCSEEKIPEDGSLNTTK
# UniProt Q15746, whole entry: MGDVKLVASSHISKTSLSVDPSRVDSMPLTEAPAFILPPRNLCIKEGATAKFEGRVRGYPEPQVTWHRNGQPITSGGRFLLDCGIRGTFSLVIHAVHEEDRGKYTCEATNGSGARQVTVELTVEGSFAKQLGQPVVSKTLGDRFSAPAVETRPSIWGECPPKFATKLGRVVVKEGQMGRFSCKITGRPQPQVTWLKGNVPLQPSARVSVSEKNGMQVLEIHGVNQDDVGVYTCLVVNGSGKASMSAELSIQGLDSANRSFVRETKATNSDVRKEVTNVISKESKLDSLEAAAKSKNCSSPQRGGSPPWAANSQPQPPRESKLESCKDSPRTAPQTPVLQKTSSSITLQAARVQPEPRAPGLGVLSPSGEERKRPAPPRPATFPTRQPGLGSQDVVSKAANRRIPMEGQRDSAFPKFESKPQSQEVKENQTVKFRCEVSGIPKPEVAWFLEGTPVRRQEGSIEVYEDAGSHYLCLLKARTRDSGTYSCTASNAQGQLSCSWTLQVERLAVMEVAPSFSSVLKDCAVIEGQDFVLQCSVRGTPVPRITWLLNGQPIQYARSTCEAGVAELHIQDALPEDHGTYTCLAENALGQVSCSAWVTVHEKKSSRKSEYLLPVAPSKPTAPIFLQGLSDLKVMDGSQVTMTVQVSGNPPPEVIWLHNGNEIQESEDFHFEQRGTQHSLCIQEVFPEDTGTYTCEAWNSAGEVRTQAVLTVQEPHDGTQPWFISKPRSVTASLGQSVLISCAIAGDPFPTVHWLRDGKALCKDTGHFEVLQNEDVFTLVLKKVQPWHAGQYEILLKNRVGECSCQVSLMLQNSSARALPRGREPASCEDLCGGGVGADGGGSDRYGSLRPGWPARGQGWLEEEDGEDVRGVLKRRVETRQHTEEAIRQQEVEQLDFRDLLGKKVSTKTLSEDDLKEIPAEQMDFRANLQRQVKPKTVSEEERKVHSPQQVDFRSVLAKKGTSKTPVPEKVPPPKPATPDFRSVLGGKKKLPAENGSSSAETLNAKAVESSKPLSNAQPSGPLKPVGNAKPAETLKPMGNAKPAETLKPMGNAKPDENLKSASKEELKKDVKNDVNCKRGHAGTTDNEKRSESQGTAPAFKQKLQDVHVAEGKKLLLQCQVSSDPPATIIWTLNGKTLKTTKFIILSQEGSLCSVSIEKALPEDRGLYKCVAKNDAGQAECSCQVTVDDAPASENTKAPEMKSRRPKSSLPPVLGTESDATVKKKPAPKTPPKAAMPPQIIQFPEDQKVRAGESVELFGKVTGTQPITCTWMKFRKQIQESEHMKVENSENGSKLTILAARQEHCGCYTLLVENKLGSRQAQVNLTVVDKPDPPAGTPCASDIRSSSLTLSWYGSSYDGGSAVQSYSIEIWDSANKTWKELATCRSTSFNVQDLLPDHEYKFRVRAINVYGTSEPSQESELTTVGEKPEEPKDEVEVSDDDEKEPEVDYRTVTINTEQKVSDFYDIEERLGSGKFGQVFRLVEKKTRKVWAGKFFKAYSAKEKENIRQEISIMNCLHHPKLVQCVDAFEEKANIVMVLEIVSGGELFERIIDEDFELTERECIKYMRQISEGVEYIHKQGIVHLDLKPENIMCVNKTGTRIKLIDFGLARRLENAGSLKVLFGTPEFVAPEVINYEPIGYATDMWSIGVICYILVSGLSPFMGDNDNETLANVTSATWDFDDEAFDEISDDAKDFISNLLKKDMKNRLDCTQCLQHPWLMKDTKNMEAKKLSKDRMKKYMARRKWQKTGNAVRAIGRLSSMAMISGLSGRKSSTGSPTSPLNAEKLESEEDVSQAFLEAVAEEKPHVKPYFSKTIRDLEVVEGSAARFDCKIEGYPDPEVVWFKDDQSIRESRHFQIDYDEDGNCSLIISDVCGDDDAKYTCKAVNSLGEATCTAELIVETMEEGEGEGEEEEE
# Tests used:
# Details in all cases: at 1 µM
# [1] = tested on: Tyrosine-protein kinase ABL1 (Homo sapiens), P00519 [F317I]; assay: Selectivity interaction (KinomeScan (DiscoverX)) EUB0001581a ABL1
# [2] = molecular target: Atypical kinase COQ8B, mitochondrial (Homo sapiens) (UniProt Q96D53); assay: Selectivity interaction (KinomeScan (DiscoverX)) EUB0001581a ADCK4
# [3] = molecular target: Tyrosine-protein kinase Blk (Homo sapiens) (UniProt P51451); assay: Selectivity interaction (KinomeScan (DiscoverX)) EUB0001581a BLK
# [4] = molecular target: Calcium/calmodulin-dependent protein kinase type II subunit beta (Homo sapiens) (UniProt Q13554); assay: Selectivity interaction (KinomeScan (DiscoverX)) EUB0001581a CAMK2B
# [5] = molecular target: Calcium/calmodulin-dependent protein kinase type II subunit gamma (Homo sapiens) (UniProt Q13555); assay: Selectivity interaction (KinomeScan (DiscoverX)) EUB0001581a CAMK2G
# [6] = molecular target: Cyclin-dependent kinase 11A (Homo sapiens) (UniProt Q9UQ88); assay: Selectivity interaction (KinomeScan (DiscoverX)) EUB0001581a CDK11A
# [7] = molecular target: Serine/threonine-protein kinase MRCK alpha (Homo sapiens) (UniProt Q5VT25); assay: Selectivity interaction (KinomeScan (DiscoverX)) EUB0001581a CDC42BPA
# [8] = molecular target: Cyclin-dependent kinase 2 (Homo sapiens, UniProt P24941); assay: Selectivity interaction (KinomeScan (DiscoverX)) EUB0001581a CDK2
# [9] = molecular target: Cyclin-dependent kinase 3 (Homo sapiens) (UniProt Q00526); assay: Selectivity interaction (KinomeScan (DiscoverX)) EUB0001581a CDK3
# [10] = molecular target: Dual specificity tyrosine-phosphorylation-regulated kinase 1B (Homo sapiens, UniProt Q9Y463); assay: Selectivity interaction (KinomeScan (DiscoverX)) EUB0001581a DYRK1B
# [11] = molecular target: Receptor tyrosine-protein kinase erbB-2 (Homo sapiens, UniProt P04626); assay: Selectivity interaction (KinomeScan (DiscoverX)) EUB0001581a ERBB2
# [12] = molecular target: Serine/threonine-protein kinase ICK (Homo sapiens) (UniProt Q9UPZ9); assay: Selectivity interaction (KinomeScan (DiscoverX)) EUB0001581a ICK
# [13] = molecular target: Insulin-like growth factor 1 receptor (Homo sapiens, UniProt P08069); assay: Selectivity interaction (KinomeScan (DiscoverX)) EUB0001581a IGF1R
# [14] = molecular target: Insulin receptor-related protein (Homo sapiens) (UniProt P14616); assay: Selectivity interaction (KinomeScan (DiscoverX)) EUB0001581a INSRR
# [15] = molecular target: Dual specificity mitogen-activated protein kinase kinase 4 (Homo sapiens) (UniProt P45985); assay: Selectivity interaction (KinomeScan (DiscoverX)) EUB0001581a MAP2K4
# [16] = molecular target: Dual specificity mitogen-activated protein kinase kinase 5 (Homo sapiens) (UniProt Q13163); assay: Selectivity interaction (KinomeScan (DiscoverX)) EUB0001581a MAP2K5
# [17] = molecular target: Dual specificity mitogen-activated protein kinase kinase 7 (Homo sapiens) (UniProt O14733); assay: Selectivity interaction (KinomeScan (DiscoverX)) EUB0001581a MAP2K7
# [18] = molecular target: Mitogen-activated protein kinase kinase kinase kinase 5 (Homo sapiens) (UniProt Q9Y4K4); assay: Selectivity interaction (KinomeScan (DiscoverX)) EUB0001581a MAP4K5
# [19] = molecular target: Mitogen-activated protein kinase 13 (Homo sapiens) (UniProt O15264); assay: Selectivity interaction (KinomeScan (DiscoverX)) EUB0001581a MAPK13
# [20] = molecular target: Mitogen-activated protein kinase 4 (Homo sapiens) (UniProt P31152); assay: Selectivity interaction (KinomeScan (DiscoverX)) EUB0001581a MAPK4
# [21] = molecular target: Mitogen-activated protein kinase 9 (Homo sapiens, UniProt P45984); assay: Selectivity interaction (KinomeScan (DiscoverX)) EUB0001581a MAPK9
# [22] = molecular target: Serine/threonine-protein kinase MARK2 (Homo sapiens) (UniProt Q7KZI7); assay: Selectivity interaction (KinomeScan (DiscoverX)) EUB0001581a MARK2
# [23] = molecular target: Serine/threonine-protein kinase NIM1 (Homo sapiens) (UniProt Q8IY84); assay: Selectivity interaction (KinomeScan (DiscoverX)) EUB0001581a NIM1K
# [24] = molecular target: Serine/threonine-protein kinase OSR1 (Homo sapiens) (UniProt O95747); assay: Selectivity interaction (KinomeScan (DiscoverX)) EUB0001581a OXSR1
# [25] = molecular target: Serine/threonine-protein kinase PAK 1 (Homo sapiens) (UniProt Q13153); assay: Selectivity interaction (KinomeScan (DiscoverX)) EUB0001581a PAK1
# [26] = molecular target: Cyclin-dependent kinase 14 (Homo sapiens) (UniProt O94921); assay: Selectivity interaction (KinomeScan (DiscoverX)) EUB0001581a CDK14
# [27] = molecular target: Phosphatidylinositol 4,5-bisphosphate 3-kinase catalytic subunit delta isoform (Homo sapiens) (UniProt O00329); assay: Selectivity interaction (KinomeScan (DiscoverX)) EUB0001581a PIK3CD
# [28] = molecular target: Serine/threonine-protein kinase pim-3 (Homo sapiens) (UniProt Q86V86); assay: Selectivity interaction (KinomeScan (DiscoverX)) EUB0001581a PIM3
# [29] = molecular target: Serine/threonine-protein kinase RIO3 (Homo sapiens) (UniProt O14730); assay: Selectivity interaction (KinomeScan (DiscoverX)) EUB0001581a RIOK3
# [30] = molecular target: Rho-associated protein kinase 1 (Homo sapiens) (UniProt Q13464); assay: Selectivity interaction (KinomeScan (DiscoverX)) EUB0001581a ROCK1
# [31] = molecular target: Ribosomal protein S6 kinase alpha-6 (Homo sapiens, UniProt Q9UK32); assay: Selectivity interaction (KinomeScan (DiscoverX)) EUB0001581a RPS6KA6
# [32] = molecular target: Serine/threonine-protein kinase Sgk3 (Homo sapiens) (UniProt Q96BR1); assay: Selectivity interaction (KinomeScan (DiscoverX)) EUB0001581a SGK3
# [33] = molecular target: Tyrosine-protein kinase SYK (Homo sapiens, UniProt P43405); assay: Selectivity interaction (KinomeScan (DiscoverX)) EUB0001581a SYK
# [34] = molecular target: TGF-beta receptor type-2 (Homo sapiens) (UniProt P37173); assay: Selectivity interaction (KinomeScan (DiscoverX)) EUB0001581a TGFBR2
# Activated CDC42 kinase 1 = Activated CDC42 kinase 1 (Homo sapiens, UniProt Q07912); assay: Selectivity interaction (KinomeScan (DiscoverX)) EUB0001581a TNK2
# [35] = molecular target: Mitogen-activated protein kinase kinase kinase 20 (Homo sapiens) (UniProt Q9NYL2); assay: Selectivity interaction (KinomeScan (DiscoverX)) EUB0001581a MAP3K20
# [36] = molecular target: Rhodopsin kinase GRK7 (Homo sapiens) (UniProt Q8WTQ7)
# [37] = molecular target: Myosin light chain kinase, smooth muscle (Homo sapiens, UniProt Q15746)
smiles,measurement,setting,value
C[C@@H]1C[C@H](N)C[C@H](c2ccncc2NC(=O)c2ccc(F)c(-c3c(F)cccc3F)n2)C1,% of control,[1],100%
same,% of control,[2],100%
same,% of control,[3],89%
same,% of control,[4],87%
same,% of control,[5],100%
same,% of control,[6],100%
same,% of control,[7],100%
same,% of control,[8],91%
same,% of control,[9],100%
same,% of control,[10],100%
same,% of control,[11],92%
same,% of control,[12],100%
same,% of control,[13],100%
same,% of control,[14],100%
same,% of control,[15],75%
same,% of control,[16],66%
same,% of control,[17],100%
same,% of control,[18],100%
same,% of control,[19],76%
same,% of control,[20],99%
same,% of control,[21],100%
same,% of control,[22],81%
same,% of control,[23],85%
same,% of control,[24],100%
same,% of control,[25],100%
same,% of control,[26],90%
same,% of control,[27],84%
same,% of control,[28],0.45%
same,% of control,[29],100%
same,% of control,[30],100%
same,% of control,[31],84%
same,% of control,[32],68%
same,% of control,[33],100%
same,% of control,[34],100%
same,% of control,Activated CDC42 kinase 1,100%
same,% of control,[35],100%
same,% of control,[36],96%
same,% of control,[37],96%
